In the supplement of paper PMC12889115:
This is one part of the list. These are raw signals, not scaled to a control.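 First-pass screen: polymyxin B was added at a level that permeabilizes the Salmonella outer membrane while sparing the inner membrane. DMSO wells, with and without polymyxin B, defined maximum growth. Because plates differed from one another, each plate's data were ranked separately and the compounds with the lowest OD600 were carried forward as hits.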

Tested on: Salmonella enterica serovar Typhimurium SL1344
Assay: bacterial growth OD600 after 18 h with compound and polymyxin B; higher = more bacterial growth (less inhibition)
Settings: 50 µM, Mueller-Hinton broth

Row | Structure (SMILES) | bacterial growth OD600 (polymyxin B 0.75 µg/mL) | bacterial growth OD600 (polymyxin B 1 µg/mL)
1 | COCCCN1C(=O)CC(CC(=O)N(C)Cc2n[nH]c3c2CCCCC3)(c2ccccc2OC)C1=O (stereo unspecified) | 0.946 | 
2 | Cc1cccc(NC(=O)CCC2CCN(S(=O)(=O)c3cccc(F)c3)CC2)c1 |  | 0.928
3 | CN(C(=O)CC(c1cccc(O)c1)c1ccccc1O)C1CCOCC1 (stereo unspecified) |  | 1.22
4 | CN(CCc1ccccc1)C1(C(=O)N2CCNC(=O)C2)Cc2ccccc2C1 |  | 1.02
5 | CC(C)CN1CCC(C2CCN(Cc3cc(C#CCO)cs3)C2)CC1 (stereo unspecified) | 0.706 | 
6 | O=C(CCc1cnccn1)N1CCCC(CCc2ccccc2C(F)(F)F)C1 (stereo unspecified) | 0.826 | 
7 | Cc1nccn1CCN(C)C(=O)C1(N2C[C@@H](C)O[C@@H](C)C2)Cc2ccccc2C1 |  | 1.1
8 | CSCCC(=O)NCc1cccnc1N(C)C1CCCCC1 |  | 0.91
9 | COCc1ccc(C(=O)N2CCCC(CCC(=O)Nc3cc(OC)cc(OC)c3)C2)o1 (stereo unspecified) |  | 0.909
10 | C[C@@H]1CN(C(=O)c2nc3sccn3c2CNCCn2ccc3ccccc32)C[C@H](C)O1 |  | 1.04
11 | Cc1ccccc1-c1cnnc(NCCc2ccccc2Cl)n1 | 0.131 | 
12 | COC(=O)CN(C)C(=O)c1coc(COc2cccc(C(F)(F)F)c2)n1 | 0.918 | 
13 | O=C(c1ccccc1OC1CCN(Cc2ccc(O)c(Cl)c2)CC1)N1CCCCC1 |  | 1.23
14 | COCCC1CCCCN1C(=O)c1cc(COc2ccc(F)cc2F)on1 (stereo unspecified) | 0.631 | 
15 | O=C(NCc1cccs1)C1CC12CCN(C(=O)C1=CCCCC1)CC2 (stereo unspecified) | 0.885 | 
16 | CSc1ccc(C(=O)N2CCC(C(Cc3ccc(F)cc3F)N(C)C(=O)C3CC3)CC2)cc1 (stereo unspecified) | 0 | 

Individual results from the list:
`CSc1ccc(C(=O)N2CCC(C(Cc3ccc(F)cc3F)N(C)C(=O)C3CC3)CC2)cc1` (stereo unspecified) | bacterial growth OD600 (polymyxin B 0.75 µg/mL): 0
`Cc1ccccc1-c1cnnc(NCCc2ccccc2Cl)n1` | bacterial growth OD600 (polymyxin B 0.75 µg/mL): 0.131

More compounds follow:

Row | Structure (SMILES) | bacterial growth OD600 (polymyxin B 0.75 µg/mL) | bacterial growth OD600 (polymyxin B 1 µg/mL)
17 | O=C(c1ccc(-c2ccccc2)cc1)C1CCCN(C(=O)c2cccnc2)C1 (stereo unspecified) |  | 0.012
18 | CN1N=C(C(=O)N2CCCC(CNC(=O)c3ccc(-c4ccccc4)cc3)C2)CCC1=O (stereo unspecified) |  | 0.977
19 | CN(Cc1ccccn1)C(=O)CC(c1cccc(O)c1)c1ccccc1Cl (stereo unspecified) |  | 0.74
20 | COCCN(CC1CCN(Cc2ccccc2F)CC1)C(=O)COC |  | 1.13
21 | CCOC(=O)C1(Cc2ccccc2C)CCCN(Cc2ccc(COC)o2)C1 (stereo unspecified) |  | 0.003
22 | CC(C)Cc1ccc(CN2CCCC(NC(=O)CCN3CCCC3=O)C2)cc1 (stereo unspecified) |  | 0.853
23 | COc1ccccc1OCC(=O)NCC1CCCN(Cc2cnn(C(C)C)c2)C1 (stereo unspecified) |  | 0.874
24 | CCOC(=O)N1CCN(C(=O)c2cn(Cc3ccccc3C(F)(F)F)nn2)CC1 |  | 0.784
25 | COc1ccc(CC2(CCC(=O)N3CCCC(C)C3)CCC(=O)N2)c(F)c1 (stereo unspecified) | 0.81 | 
26 | Cc1c(-c2ccccc2F)[nH]c2ccc(CNCc3cnn(C)c3)cc12 | 0.635 | 
27 | CCS(=O)(=O)Nc1cc(C(=O)NC(C)Cc2ccccn2)c2c(c1)nc(-c1ccccc1)n2C (stereo unspecified) | 0.776 | 
28 | CCn1c(CN2CCC(O)(Cc3cc(-c4ccccc4)no3)CC2)nc2ccccc21 |  | 0.875
29 | CCC(C)CC(=O)N1CCC(C2(c3cccnc3)NC(=O)N(CCc3cccs3)C2=O)CC1 (stereo unspecified) | 0.885 | 
30 | CC(C)CCNC(=O)c1cn(CC(C)C)cc(C(=O)N2CCN(C(C)C)CC2)c1=O | 0.885 | 
31 | Cc1ncoc1C(=O)N1CCC(C2CCN(c3ncccn3)CC2)C1 (stereo unspecified) | 0.817 | 
